These results are taken from PMC7809621.

No constants are given. Whether binding was seen depends on the method and setting. In cells and extracts the contact can be indirect. These calls come from enrichment with a bait or labelling near it, and not all partners need be listed. Sequences can lack the tags named with a protein.

The target in experiment [1] is 6His-Flag-TMK1^cyt (isolated cytosolic domain of TMK1, wild type) (Arabidopsis thaliana). Put plainly: affinity purification with mass spectrometry; HA-MAKR2 co-expressed in E. coli with 6His-Flag-TMK1^cyt or its K616R form; soluble fraction on IMAC-nickel resin (20 mM Tris pH8, NaCl 150mM, imidazole washes, elution with 400 mM imidazole); eluate analysed by ESI/MS/MS.

The target in experiment [2] is 6His-Flag-TMK1^cyt-K616R (isolated cytosolic domain of TMK1, kinase-dead) (Arabidopsis thaliana). The description is as above.

B1: HA-MAKR2 (protein, UniProt Q9SH58 1-411)
chain: MEAFSLLNYWKNSGGAVTFLPHSSESSSSSLCRYSAGESIGTTTIVTSVTETEDEEADENDDEGPFFDLEFALPAEEEDTDGGVGREGDSDCTDGGCEFKFTLSSCSGGEDRVDPDSLDDVFFKETIVEEVEPPTSSEQQTCSVKAPAAQLSASILKTATKLRVFMLGMKKSKLIQAKSEANFGSEDLDKQTHPPPPLSLSPESQQKSTVTVNLKVEEVPIISLFSRENSSKNSSSSSSSSSSSSSSLKKQNGNESVVSDEKRFVMMQKYLKKVKPLYIRVSRRYGEKLRHSGQLTAPSSARSTAEKADSPVATKTNNKPGNNINIPAGLKVVRKHLGKSRSSSSTATTPSSTTATVTTQSESRRRDDSLLQQQDSIQSAILHCKRSFNSSRDKDPSVLPRSVSEPSSYEK
As for B1, the binding result in experiment [1] and in experiment [2] was “binds” throughout.
